Taken from: PubChem BioAssay AID1671195 (Yale University, 2021)
Purpose: 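Knockdowns that increase or decrease uptake of fluorescent LDL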 (primary screen). Cell system: human Huh7 hepatoma cells. Reagents: siRNA pool against human genes, 18 nM. Timing: about 2 to 2.5 days of knockdown, then 8 h LDL uptake. Treatment: DiI-labelled LDL at 30 µg/ml for 8 h, in lipoprotein-deficient serum medium. Measurement: 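Per-cell DiI-LDL intensity by automated imaging; well means scaled to the plate median and given as a robust z-score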. Direction: robust z-score: higher = more LDL uptake after knockdown. Call rule: 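Active when two or more replicates show a robust z-score above 2 or below -2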.
In all, the deposit lists about 22,000 reagents; this is an unselected part. In the full data, about 1,510 (6.9%) got an active call. 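Active includes knockdowns raising or lowering LDL uptake; positive z-scores mean more uptake, negative mean less.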

robust z-score, replicate 1 | robust z-score, replicate 2 | robust z-score, replicate 3 | activity call | target gene
2.09 | 1.76 | 1.27 | inactive | GPRIN3 (GPRIN family member 3)
-0.965 | -1.14 | -0.989 | inactive | IFNW1 (interferon omega 1)
-0.464 | -1.15 | -0.549 | inactive | CNOT2 (CCR4-NOT transcription complex subunit 2)
0.177 | 0.853 | 0.126 | inactive | FAM220A (family with sequence similarity 220 member A)
-1.11 | -1.21 | -1.17 | inactive | USP15 (ubiquitin specific peptidase 15)
0.661 | 1.23 | 0.291 | inactive | IVD (isovaleryl-CoA dehydrogenase)
-0.127 | -2.15 | 1.12 | inactive | TSHB (thyroid stimulating hormone subunit beta)
-0.238 | 0.387 | 1.68 | inactive | NOL4 (nucleolar protein 4)
0.168 | 0.109 | 0.464 | inactive | LOC439959 (retired record)
0.733 | 1.21 | 0.566 | inactive | ZFP28 (ZFP28 zinc finger protein)
0.16 | -0.618 | -0.796 | inactive | RDM1 (RAD52 motif containing 1)
-0.271 | -0.391 | 0.336 | inactive | LOC441010 (retired record)
0.31 | 0.142 | 1.95 | inactive | CHUK
0.791 | 1.35 | 0.91 | inactive | MYOF (myoferlin)
0.731 | -0.612 | 0.234 | inactive | KIRREL1 (kirre like nephrin family adhesion molecule 1)
-0.497 | -0.647 | 0.124 | inactive | RFPL2 (ret finger protein like 2)
1.72 | 2.54 | 2.34 | active | LOC400388 (retired record)
0.811 | 0.675 | 0.26 | inactive | LOC442331 (retired record)
0.701 | -1.01 | -2.97 | inactive | SLC25A34
0.579 | 0.563 | 0.804 | inactive | LOC441877 (retired record)
0.983 | 0.21 | 1.16 | inactive | MAEA (macrophage erythroblast attacher, E3 ubiquitin ligase)
2.06 | 1.36 | 2.09 | active | CST9 (cystatin 9)
-0.752 | -0.509 | 0.638 | inactive | SYNPO2 (synaptopodin 2)
-1.02 | -0.201 | -0.414 | inactive | QPCTL (glutaminyl-peptide cyclotransferase like)
-1.07 | -0.545 | -1.3 | inactive | ASMTL (acetylserotonin O-methyltransferase like)
-0.142 | -0.166 | -0.304 | inactive | LOC389958 (retired record)
-1.02 | -0.571 | -0.176 | inactive | AMHR2 (anti-Mullerian hormone receptor type 2)
-0.859 | -0.62 | -0.0445 | inactive | ETV2 (ETS variant transcription factor 2)
-0.937 | -0.622 | -0.544 | inactive | CDC16 (cell division cycle 16)
0.101 | -0.484 | 0.516 | inactive | CHD1L (chromodomain helicase DNA binding protein 1 like)
0.136 | 1.04 | 0.773 | inactive | SAMD1 (sterile alpha motif domain containing 1)
-0.872 | -0.74 | -0.928 | inactive | LOC387922 (retired record)
-0.376 | -0.359 | -0.109 | inactive | MRGPRF (MAS related GPR family member F)
-0.278 | -0.459 | -0.705 | inactive | EXOC7 (exocyst complex component 7)
-0.787 | 1.84 | 0.5 | inactive | MYOM1 (myomesin 1)
-0.794 | -1.14 | -0.495 | inactive | NFRKB (nuclear factor related to kappaB binding protein)
-0.973 | -0.851 | -1.07 | inactive | VMA22 (vacuolar ATPase assembly factor VMA22)
0.113 | 0.479 | -0.969 | inactive | GAB4 (GRB2 associated binding protein family member 4)
0.129 | 0.135 | 0.631 | inactive | LOC441853 (retired record)
0.849 | 1 | 0.997 | inactive | GHR (growth hormone receptor)
0.917 | 0.0353 | 0.627 | inactive | TBC1D20 (TBC1 domain family member 20)
2.27 | 2.06 | 2.1 | active | KCTD12 (potassium channel tetramerization domain containing 12)
0.553 | -0.951 | -0.869 | inactive | DDX24 (DEAD-box helicase 24)
1.28 | -0.638 | -0.959 | inactive | SIPA1 (signal-induced proliferation-associated 1)
-0.555 | -0.83 | -1.16 | inactive | C11orf68 (chromosome 11 open reading frame 68)
0.0673 | 0.307 | 0.0658 | inactive | ZNF470 (zinc finger protein 470)

A few values from the entries so far.
LOC442331 (retired record), robust z-score, replicate 2 → 0.675
Value for KCTD12 (potassium channel tetramerization domain containing 12) under “robust z-score, replicate 1”: 2.27
